Measurements reported in article PMC4455304.
These are yes or no findings as the source states them, for the method shown. Some entries that bind do so weakly or less than the wild type.

Amino acid sequences for entries named in this document (tags omitted). A change or cut given only in a name is not applied to a line headed by its entry.
UniProt Q16531: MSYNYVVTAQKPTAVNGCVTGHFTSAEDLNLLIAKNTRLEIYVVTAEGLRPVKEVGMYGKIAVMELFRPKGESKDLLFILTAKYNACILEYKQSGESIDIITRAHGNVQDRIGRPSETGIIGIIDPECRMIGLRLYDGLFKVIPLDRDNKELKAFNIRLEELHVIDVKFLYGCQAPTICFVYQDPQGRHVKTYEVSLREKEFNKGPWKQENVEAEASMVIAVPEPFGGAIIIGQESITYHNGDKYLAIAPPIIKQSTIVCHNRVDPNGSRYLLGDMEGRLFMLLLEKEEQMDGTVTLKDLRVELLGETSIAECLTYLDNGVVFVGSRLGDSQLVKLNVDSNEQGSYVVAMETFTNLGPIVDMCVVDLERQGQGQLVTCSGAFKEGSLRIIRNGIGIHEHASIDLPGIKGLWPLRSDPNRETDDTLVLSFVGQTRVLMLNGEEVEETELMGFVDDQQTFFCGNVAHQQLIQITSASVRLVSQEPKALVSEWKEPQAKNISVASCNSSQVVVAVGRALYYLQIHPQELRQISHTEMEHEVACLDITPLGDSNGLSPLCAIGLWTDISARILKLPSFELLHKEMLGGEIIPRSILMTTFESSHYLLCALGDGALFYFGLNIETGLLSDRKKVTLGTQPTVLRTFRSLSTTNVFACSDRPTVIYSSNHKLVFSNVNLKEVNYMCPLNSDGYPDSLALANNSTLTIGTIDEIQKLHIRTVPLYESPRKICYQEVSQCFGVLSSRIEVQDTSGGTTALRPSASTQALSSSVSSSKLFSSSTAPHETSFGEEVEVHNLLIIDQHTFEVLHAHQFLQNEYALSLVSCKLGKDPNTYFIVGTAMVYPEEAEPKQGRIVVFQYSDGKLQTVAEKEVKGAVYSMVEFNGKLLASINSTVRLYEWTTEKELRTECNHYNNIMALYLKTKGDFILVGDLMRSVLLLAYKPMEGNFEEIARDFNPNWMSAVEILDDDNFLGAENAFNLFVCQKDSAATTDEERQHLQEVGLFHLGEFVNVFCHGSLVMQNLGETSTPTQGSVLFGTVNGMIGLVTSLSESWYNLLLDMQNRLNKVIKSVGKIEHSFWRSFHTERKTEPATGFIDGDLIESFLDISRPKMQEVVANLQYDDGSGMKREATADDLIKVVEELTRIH
UniProt Q92466: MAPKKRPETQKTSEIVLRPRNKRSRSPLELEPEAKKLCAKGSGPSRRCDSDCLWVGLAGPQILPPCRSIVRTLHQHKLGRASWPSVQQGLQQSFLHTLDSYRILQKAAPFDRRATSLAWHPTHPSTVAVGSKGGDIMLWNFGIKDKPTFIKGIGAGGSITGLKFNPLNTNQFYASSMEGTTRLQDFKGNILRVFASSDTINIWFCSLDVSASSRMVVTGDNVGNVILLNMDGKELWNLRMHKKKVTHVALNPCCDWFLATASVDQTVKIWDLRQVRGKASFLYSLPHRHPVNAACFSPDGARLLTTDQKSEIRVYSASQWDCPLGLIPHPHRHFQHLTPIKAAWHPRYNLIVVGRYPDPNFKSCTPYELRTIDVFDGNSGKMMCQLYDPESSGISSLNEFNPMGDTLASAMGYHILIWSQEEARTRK
UniProt Q01831: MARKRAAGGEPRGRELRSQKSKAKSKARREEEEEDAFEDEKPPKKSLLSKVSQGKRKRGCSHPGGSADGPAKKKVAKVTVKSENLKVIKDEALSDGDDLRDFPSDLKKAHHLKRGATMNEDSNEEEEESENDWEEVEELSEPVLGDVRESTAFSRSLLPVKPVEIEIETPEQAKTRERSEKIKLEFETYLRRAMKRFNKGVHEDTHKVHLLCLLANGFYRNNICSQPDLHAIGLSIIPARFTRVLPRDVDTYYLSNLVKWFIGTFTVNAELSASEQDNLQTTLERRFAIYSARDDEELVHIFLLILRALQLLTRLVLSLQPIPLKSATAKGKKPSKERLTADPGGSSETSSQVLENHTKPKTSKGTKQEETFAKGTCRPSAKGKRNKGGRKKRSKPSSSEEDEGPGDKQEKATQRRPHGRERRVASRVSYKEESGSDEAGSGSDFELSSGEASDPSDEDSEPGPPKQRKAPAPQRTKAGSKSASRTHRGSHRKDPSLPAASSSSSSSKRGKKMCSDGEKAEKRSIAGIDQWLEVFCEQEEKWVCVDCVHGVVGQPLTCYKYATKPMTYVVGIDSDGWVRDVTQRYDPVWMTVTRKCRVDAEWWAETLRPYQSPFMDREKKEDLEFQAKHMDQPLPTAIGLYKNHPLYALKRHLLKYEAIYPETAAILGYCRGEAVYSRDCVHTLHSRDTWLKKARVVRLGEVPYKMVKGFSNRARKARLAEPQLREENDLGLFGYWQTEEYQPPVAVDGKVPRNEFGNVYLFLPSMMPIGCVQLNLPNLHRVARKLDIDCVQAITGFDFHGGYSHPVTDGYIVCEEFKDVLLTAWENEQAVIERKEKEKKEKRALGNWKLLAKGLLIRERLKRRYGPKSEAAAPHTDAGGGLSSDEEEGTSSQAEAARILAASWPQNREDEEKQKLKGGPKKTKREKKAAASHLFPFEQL

Target: biotinylated UV-DDB complex (DDB1/FA-DDB2) (human) (UniProt Q16531+Q92466)
Assay: pull-down; biotinylated UV-DDB complex (60 ng) held on streptavidin-coated paramagnetic beads, incubated on ice for 1 h with XPC/RAD23B/centrin-2 complex (30 ng); 25 mM Tris-HCl pH 7.5, 1 mM EDTA, 0.1 M NaCl, 10% glycerol, 1 mM DTT, 0.01% Triton X-100; immunoblot; both purified

| binding | Substance |
| --- | --- |
| binds | XPC/RAD23B/centrin-2 complex (XPC 3KR: K81R, K89R, K183R) (from UniProt Q01831 1-940; P54727 1-409; P41208 1-172) |
| binds | XPC/RAD23B/centrin-2 complex (XPC WT) (from UniProt Q01831 1-940; P54727 1-409; P41208 1-172) |
